No constants are given. Whether binding was seen depends on the method and setting. In cells and extracts the contact can be indirect. Some results given as binding are weak or reduced against the parent protein; the word gives no strength.

Test [1] addresses FLAG-tagged SARS-CoV-2 membrane protein (M) (SARS-CoV-2) (UniProt P0DTC5). Kind of test: co-IP; […] (50 mM Tris-HCl pH 7.4, 150 mM NaCl, 1 mM EDTA, 1% Triton X-100); […].
The target in test [2] is Proliferating Cell Nuclear Antigen (PCNA), endogenous in HEK293T cells (human (endogenous in HEK293T)) (UniProt P12004). Kind of test: co-IP.

Consider “Proliferating Cell Nuclear Antigen (PCNA), endogenous in HEK293T cells (from UniProt P12004 1-261)”, for which the binding entry in test [1] is “binds”. “FLAG-tagged SARS-CoV-2 membrane protein (M) (from UniProt P0DTC5 1-222)”: in test [2], the binding result was “binds”.

For the origin of these results see publication PMC9168989.
